Reference: patent CN111944047A
No constants are given. Whether binding was seen depends on the method and setting. Some results given as binding are weak or reduced against the parent protein; the word gives no strength.

Chains of the proteins cited; added tags and fusions are not shown. Lines headed by an entry give the natural chain unless they say otherwise; changes in a name come on top. Residues count along the entry.
UniProt Q02223: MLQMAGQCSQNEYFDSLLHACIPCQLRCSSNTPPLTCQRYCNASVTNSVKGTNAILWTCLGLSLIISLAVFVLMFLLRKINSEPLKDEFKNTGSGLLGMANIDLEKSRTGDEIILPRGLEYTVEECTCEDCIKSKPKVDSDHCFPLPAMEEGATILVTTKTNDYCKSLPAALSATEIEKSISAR
hBCMA-hFc: residues 1-54 of Q02223

What was measured:
[1] = target: hBCMA-hFc (human) (UniProt Q02223); test: Fortebio Octet K2 / Nicoya OpenSPR
[2] = target: BCMA on BCMA-positive MM1S cells (UniProt Q02223); test: His-tagged ScFv2 in 2 dilutions incubated with BCMA-positive MM1S and BCMA-negative K562 cells

| Binder | binding [1] | binding [2] |
| --- | --- | --- |
| ScFv2 (scFv) scFv: DIVLTQSPASLAVSLGQRATITCRASESVSIHGTHLMHWYQQKPGQPPVLVIYAASNLESGVPARFSGSGSGTDFTLKIHPVEAEDVGVYYCQQSIEDPRTFGGGTKLEIKGSTSGSGKPGSGEGSTKGQVQLVQSGPEVKKPGASVKVSCKASGYTFTDYYMNWVRQMHGKGLEWMGVINPYNGGTDYNQKFKGRVTITADKSTSTAYMELSSLRSEDTAVYYCARSVYDYPFDYWGQGTLVTVSS | binds | binds |
| ScFv1 (scFv) scFv: DIVMTQSPDSLAVSLGERATINCRASESVSIHGTHLMHWYQQLPGTPPKLLIYAASNLESGVPDRFSGSGSGTDFTLKISPVEAEDVGVYYCQQSIEDPRTFGGGTKLEIKGSTSGSGKPGSGEGSTKGQVQLVQSGPALVKPGASVKVSCKASGYTFTDYYMNWVRQAHGQGLEWMGVINPYNGGTDYNQKFKGRVTMTRDTSISTAYMELSSLRSEDTAVYYCARSVYDYPFDYWGQGTLVTVSS | binds | – |
